# Measured values as given in the supplement of paper PMC12067093, “Discovery and optimisation of a covalent ligand for TRIM25 and its application to targeted protein ubiquitination” (Chemical Science, 2025).
# Amino acid sequences for entries named in this document (tags omitted). A change or cut given only in a name is not applied to a line headed by its entry.
# UniProt Q2M2I8: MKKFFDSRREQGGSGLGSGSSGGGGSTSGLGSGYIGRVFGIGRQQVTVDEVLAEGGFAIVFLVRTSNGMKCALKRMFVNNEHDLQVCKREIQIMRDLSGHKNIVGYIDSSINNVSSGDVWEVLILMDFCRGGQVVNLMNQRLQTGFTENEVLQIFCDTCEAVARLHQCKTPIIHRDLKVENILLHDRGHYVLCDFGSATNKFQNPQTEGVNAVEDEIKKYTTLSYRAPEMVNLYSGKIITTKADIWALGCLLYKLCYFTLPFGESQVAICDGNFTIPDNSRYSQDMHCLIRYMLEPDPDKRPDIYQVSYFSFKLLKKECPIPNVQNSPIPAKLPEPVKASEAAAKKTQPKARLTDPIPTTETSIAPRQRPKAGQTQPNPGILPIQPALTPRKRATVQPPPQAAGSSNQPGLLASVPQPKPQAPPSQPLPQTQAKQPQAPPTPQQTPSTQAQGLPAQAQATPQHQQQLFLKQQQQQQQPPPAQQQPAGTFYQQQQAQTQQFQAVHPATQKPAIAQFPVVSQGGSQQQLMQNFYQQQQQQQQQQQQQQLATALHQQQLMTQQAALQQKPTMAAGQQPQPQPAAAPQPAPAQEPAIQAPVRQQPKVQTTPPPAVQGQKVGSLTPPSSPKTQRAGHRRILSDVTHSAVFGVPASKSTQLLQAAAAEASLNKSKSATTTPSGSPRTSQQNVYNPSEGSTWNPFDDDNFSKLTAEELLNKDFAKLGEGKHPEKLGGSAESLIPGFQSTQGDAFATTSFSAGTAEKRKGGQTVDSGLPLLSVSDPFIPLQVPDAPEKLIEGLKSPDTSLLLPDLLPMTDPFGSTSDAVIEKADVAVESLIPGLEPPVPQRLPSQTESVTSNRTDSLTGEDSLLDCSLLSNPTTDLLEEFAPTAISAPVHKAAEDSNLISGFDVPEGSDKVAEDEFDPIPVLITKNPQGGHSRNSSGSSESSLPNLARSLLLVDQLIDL
# UniProt P49588, whole entry, looked up: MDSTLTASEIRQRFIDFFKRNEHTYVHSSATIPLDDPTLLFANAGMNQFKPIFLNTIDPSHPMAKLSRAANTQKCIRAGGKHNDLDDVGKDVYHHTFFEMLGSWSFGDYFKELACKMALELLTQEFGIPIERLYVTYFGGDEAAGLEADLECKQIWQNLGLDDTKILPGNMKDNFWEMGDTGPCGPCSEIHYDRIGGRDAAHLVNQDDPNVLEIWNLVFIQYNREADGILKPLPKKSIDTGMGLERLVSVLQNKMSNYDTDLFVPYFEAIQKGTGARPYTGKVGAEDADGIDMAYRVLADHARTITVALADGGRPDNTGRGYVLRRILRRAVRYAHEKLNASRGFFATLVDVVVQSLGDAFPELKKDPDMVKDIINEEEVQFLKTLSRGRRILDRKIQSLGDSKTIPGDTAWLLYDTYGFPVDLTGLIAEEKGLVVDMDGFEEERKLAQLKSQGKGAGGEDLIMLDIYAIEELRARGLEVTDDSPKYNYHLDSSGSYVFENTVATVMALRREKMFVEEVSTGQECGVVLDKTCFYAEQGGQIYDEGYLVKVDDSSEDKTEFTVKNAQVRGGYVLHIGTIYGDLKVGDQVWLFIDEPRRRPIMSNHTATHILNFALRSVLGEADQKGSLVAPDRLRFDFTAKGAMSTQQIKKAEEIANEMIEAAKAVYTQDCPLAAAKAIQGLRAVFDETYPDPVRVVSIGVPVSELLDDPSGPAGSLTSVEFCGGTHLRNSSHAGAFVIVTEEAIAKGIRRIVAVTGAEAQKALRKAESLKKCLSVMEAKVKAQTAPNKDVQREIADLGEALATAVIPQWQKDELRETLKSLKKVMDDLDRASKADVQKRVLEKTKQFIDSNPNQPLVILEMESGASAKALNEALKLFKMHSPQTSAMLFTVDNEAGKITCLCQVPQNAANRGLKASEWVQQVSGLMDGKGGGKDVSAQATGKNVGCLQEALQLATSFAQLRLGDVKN
# UniProt Q99798: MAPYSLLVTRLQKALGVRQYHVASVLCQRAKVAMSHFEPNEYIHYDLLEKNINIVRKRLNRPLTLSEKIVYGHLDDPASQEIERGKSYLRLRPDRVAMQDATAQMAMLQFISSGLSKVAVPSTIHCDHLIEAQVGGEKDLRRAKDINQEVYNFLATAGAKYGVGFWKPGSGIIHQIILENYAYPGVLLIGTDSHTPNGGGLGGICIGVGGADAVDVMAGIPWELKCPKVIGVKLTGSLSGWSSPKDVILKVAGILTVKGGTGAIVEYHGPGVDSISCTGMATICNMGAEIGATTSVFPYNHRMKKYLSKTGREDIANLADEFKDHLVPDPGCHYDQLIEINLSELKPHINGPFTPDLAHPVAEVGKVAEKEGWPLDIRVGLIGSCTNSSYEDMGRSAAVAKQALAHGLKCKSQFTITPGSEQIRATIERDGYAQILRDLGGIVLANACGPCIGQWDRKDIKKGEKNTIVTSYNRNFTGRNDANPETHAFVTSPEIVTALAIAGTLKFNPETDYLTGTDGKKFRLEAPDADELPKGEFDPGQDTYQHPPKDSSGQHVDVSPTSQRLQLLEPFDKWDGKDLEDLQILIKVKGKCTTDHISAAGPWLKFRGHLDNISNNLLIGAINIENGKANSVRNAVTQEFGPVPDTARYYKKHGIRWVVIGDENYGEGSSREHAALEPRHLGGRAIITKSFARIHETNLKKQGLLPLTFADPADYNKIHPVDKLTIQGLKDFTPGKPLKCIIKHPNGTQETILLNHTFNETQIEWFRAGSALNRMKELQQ
# UniProt P53396: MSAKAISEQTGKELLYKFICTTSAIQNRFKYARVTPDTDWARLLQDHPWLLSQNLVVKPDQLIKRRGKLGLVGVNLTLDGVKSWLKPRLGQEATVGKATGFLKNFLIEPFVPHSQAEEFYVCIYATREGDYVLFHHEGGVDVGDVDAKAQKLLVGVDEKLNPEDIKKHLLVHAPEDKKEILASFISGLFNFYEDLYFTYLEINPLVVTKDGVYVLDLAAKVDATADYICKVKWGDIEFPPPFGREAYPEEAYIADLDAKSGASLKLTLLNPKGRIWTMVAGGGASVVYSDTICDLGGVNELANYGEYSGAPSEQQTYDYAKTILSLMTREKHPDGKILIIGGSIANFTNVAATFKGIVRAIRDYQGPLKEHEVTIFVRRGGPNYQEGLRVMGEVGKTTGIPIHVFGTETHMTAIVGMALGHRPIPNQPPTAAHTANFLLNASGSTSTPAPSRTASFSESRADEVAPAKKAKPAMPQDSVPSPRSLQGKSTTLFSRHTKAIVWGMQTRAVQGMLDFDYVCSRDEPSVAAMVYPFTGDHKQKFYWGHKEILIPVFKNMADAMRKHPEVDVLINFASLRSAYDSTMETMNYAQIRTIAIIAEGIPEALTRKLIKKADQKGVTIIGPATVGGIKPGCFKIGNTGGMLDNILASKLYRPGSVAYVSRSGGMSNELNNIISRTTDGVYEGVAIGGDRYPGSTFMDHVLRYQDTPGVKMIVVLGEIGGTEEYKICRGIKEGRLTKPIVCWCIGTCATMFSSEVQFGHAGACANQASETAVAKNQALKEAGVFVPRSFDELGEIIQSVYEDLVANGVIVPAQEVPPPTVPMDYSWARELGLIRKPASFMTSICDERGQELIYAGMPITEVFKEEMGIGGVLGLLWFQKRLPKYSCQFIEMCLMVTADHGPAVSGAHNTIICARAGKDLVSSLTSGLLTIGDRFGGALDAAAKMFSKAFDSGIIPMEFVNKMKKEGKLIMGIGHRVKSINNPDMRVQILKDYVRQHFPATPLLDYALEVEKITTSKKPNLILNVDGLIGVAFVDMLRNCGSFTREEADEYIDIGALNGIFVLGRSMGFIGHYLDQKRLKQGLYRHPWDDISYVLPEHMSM
# UniProt O95870: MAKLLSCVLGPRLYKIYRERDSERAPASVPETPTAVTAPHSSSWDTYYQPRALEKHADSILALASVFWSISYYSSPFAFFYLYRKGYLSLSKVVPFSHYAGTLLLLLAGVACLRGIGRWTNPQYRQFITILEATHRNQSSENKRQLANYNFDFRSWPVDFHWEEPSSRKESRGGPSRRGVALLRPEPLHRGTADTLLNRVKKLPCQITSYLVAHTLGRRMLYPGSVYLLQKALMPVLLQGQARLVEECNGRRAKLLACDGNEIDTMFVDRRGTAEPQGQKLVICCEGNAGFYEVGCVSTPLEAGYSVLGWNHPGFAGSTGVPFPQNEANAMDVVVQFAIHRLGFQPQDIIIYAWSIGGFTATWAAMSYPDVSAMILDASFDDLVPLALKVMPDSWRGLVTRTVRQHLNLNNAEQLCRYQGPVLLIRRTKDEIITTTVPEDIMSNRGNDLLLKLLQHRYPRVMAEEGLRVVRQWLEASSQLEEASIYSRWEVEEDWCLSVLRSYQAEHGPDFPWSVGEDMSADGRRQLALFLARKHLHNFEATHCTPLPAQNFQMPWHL
# UniProt P09110: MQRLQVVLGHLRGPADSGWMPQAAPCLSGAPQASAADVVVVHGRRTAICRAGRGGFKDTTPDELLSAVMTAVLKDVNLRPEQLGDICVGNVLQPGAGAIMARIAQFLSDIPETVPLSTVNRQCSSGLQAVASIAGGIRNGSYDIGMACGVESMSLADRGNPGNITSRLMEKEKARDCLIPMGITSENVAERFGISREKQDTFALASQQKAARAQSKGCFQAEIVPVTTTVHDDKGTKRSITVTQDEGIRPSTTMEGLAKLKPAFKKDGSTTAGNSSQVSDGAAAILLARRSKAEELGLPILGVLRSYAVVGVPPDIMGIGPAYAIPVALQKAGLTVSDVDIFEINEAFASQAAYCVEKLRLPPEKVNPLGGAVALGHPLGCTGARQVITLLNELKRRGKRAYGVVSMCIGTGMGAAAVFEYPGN
# UniProt Q5VST6: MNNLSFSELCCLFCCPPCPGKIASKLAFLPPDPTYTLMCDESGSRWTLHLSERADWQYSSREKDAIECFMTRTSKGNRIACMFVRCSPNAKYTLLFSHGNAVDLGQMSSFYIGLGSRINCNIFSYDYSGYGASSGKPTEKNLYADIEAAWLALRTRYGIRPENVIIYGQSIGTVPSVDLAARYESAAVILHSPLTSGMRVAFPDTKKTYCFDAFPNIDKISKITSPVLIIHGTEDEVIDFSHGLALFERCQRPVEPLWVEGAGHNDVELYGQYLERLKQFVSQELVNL
# UniProt Q8WXI4: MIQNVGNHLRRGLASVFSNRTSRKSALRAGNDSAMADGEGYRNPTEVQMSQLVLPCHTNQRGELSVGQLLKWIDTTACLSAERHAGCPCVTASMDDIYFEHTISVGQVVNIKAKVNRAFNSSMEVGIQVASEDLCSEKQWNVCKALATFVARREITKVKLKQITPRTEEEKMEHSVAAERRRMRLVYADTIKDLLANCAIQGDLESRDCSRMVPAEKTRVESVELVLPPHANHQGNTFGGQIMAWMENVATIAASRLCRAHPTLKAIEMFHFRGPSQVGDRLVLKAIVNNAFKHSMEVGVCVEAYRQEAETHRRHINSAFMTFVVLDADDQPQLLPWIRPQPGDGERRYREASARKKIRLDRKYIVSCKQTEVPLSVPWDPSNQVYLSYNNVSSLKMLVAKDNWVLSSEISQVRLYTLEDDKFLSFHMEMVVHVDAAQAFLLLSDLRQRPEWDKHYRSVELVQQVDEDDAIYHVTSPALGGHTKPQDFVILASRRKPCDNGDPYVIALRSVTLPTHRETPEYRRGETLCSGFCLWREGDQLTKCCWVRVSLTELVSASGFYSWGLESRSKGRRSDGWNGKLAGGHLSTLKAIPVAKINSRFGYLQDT
# UniProt P49753: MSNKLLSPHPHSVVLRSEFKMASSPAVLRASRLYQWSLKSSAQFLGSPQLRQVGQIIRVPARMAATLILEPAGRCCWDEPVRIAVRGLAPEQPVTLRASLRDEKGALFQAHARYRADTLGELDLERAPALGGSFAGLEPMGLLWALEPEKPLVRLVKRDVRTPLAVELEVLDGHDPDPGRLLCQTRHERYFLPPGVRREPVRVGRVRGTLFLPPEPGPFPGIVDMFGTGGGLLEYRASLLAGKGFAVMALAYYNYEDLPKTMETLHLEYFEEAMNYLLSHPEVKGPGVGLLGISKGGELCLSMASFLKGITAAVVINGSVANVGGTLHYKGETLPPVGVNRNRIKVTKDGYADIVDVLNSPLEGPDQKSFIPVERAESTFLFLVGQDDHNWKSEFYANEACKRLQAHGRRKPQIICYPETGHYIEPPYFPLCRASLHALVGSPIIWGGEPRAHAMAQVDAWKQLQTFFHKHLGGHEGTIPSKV
# UniProt Q96GS6: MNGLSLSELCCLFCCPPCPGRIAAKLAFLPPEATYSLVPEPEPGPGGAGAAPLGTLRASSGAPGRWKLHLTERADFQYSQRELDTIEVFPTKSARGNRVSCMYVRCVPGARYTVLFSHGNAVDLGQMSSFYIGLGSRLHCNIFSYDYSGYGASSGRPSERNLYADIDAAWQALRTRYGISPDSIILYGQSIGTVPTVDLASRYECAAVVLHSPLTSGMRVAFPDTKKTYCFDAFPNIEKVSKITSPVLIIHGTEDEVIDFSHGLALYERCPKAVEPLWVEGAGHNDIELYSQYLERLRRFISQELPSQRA
# The list shows a part of the results.
# Compound: CC1Cc2ccccc2N1C(=O)C1CCCN(C1)C(=O)CCl (mixture of isomers) [TRIM25 ligand 11 (diastereomer mixture)]
# Experiment: probe-labelled cysteine peptide fold change vs DMSO (competition) (log2 fold change); higher = less target engagement (more negative = stronger competition)
# Conditions: 50 µM; THP-1; incubation time: 4 h
# 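Also: competitive chemoproteomic profiling in live THP-1 cells with an iodoacetamide desthiobiotin (IA-DTB) probe, comparing probe-labelled peptide intensities in compound-treated cells against DMSO-treated controls.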
row,Target,probe-labelled cysteine peptide fold change
1,AAK1_Q2M2I8_288_YSQDMHCLIR (UniProt Q2M2I8),-0.0569
2,ABHD6_Q9BV23_217_IPLIPSTPEEMSEMLQLCSYVR (UniProt Q9BV23),0.0413
3,ABHD15_Q6UXT9_323_SLREFEEALFCHTK (UniProt Q6UXT9),0.1
4,ABHD10_Q9NUJ1_107_SLGHACIR (UniProt Q9NUJ1),0.0714
5,AARS_P49588_901_ITCLCQVPQNAANR (UniProt P49588),0.0741
6,ACO2_Q99798_448+451_DLGGIVLANACGPCIGQWDRK (UniProt Q99798),-0.169
7,ACLY_P53396_1040_NCGSFTREEADEYIDIGALNGIFVLGR (UniProt P53396),-0.0516
8,AARS_P49588_901+903_ITCLCQVPQNAANR (UniProt P49588),0.201
9,ABHD12_Q8N2K0_52_CAADAGMK (UniProt Q8N2K0),-0.2
10,ACO1_P21399_118_INPVCPADLVIDHSIQVDFNR (UniProt P21399),0.0862
11,ABCE1_P61221_65_KCPFGALSIVNLPSNLEK (UniProt P61221),0.0904
12,ACAT2_Q9BWD1_158_IGEMPLTDSILCDGLTDAFHNCHMGITAENVAK (UniProt Q9BWD1),-0.138
13,AAK1_Q2M2I8_319_KECPIPNVQNSPIPAK (UniProt Q2M2I8),-0.082
14,AARS_P49588_947_NVGCLQEALQLATSFAQLR (UniProt P49588),0.121
15,ACAT2_Q9BWD1_65_RATVAPEDVSEVIFGHVLAAGCGQNPVR (UniProt Q9BWD1),-0.000715
16,ABRAXAS2_Q15018_237_VVESCQAEVNK (UniProt Q15018),0.0743
17,ABCA1_O95477_215_SEEMIQLGDQEVSELCGLPR (UniProt O95477),-0.196
18,ACACA_Q13085_1396_NFDLTAIPCANHK (UniProt Q13085),-0.0964
19,ACO2_Q99798_592_CTTDHISAAGPWLK (UniProt Q99798),0.0227

row,Target,probe-labelled cysteine peptide fold change
1,ACBD6_Q9BR61_200_ALLHWACDR (UniProt Q9BR61),-0.0101
2,ABCE1_P61221_38_LCIEVTPQSK (UniProt P61221),0.0618
3,ABHD16A_O95870_416_QHLNLNNAEQLCR (UniProt O95870),0.141
4,ABHD11_Q8NFV4_135_NHGDSPHSPDMSYEIMSQDLQDLLPQLGLVPCVVVGHSMGGK (UniProt Q8NFV4),-0.178
5,ACAA1_P09110_49_RTAICR (UniProt P09110),0.205
6,ACLY_P53396_229_VDATADYICK (UniProt P53396),0.0927
7,ABHD17B_Q5VST6_68_DAIECFMTR (UniProt Q5VST6),0.166
8,ABCE1_P61221_227_FACAVVCIQK (UniProt P61221),0.211
9,ABHD3_Q8WU67_86_FLQDHCPVVTETYYPTVWCWEGR (UniProt Q8WU67),0.0955
10,ACOT11_Q8WXI4_529_RGETLCSGFCLWR (UniProt Q8WXI4),0.256
11,AARS_P49588_184_DNFWEMGDTGPCGPCSEIHYDR (UniProt P49588),-0.152
12,ACACA_Q13085_378_DCSVQR (UniProt Q13085),0.5
13,ACOT13_Q9NPJ3_74_VEEEHTNAIGTLHGGLTATLVDNISTMALLCTER (UniProt Q9NPJ3),0.169
14,ACO2_Q99798_451_DLGGIVLANACGPCIGQWDRK (UniProt Q99798),-0.185
15,ACOT2_P49753_300_GGELCLSMASFLK (UniProt P49753),-0.0178
16,AARS_P49588_671_AVYTQDCPLAAAK (UniProt P49588),-0.0594
17,ABHD17A_Q96GS6_205_YECAAVVLHSPLTSGMR (UniProt Q96GS6),-0.0239
18,AAK1_Q2M2I8_250_ADIWALGCLLYK (UniProt Q2M2I8),0.228
19,ABCE1_P61221_231_FACAVVCIQK (UniProt P61221),0.163
